Test results taken from PubChem BioAssay AID2685 (National Center for Advancing Translational Sciences (NCATS), 2010).
The list shows a part of the results. Further columns of the screen follow, without active or inactive calls. The list favours compounds with an active or inconclusive main result. The note in brackets gives the kind of curve behind each potency; many fits are weak.

Assay: qHTS Assay for Lipid Storage Modulators in Drosophila S3 Cells;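 on cell number change: cells counted by Cell Tracker Red CMTPX staining in the red channel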
Conditions: BODIPY lipid droplet fluorescence, 18-24 h; for cell number change: measured here: cell count max response, cells fed with added oleic acid
Method in brief: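 Drosophila S3 cells loaded with oleic acid (400 uM, as added) and compounds at several concentrations; lipid droplets imaged by 488-nm laser-scanning cytometry, 500–530 nm intensity and object ratio to cell channel. Percent activity normalized to 20 uM Triacsin C.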

[1] = measured here: lipid fluorescence (Fed channel) AC50, cells fed with added oleic acid
[2] = measured here: cell number channel AC50, cells fed with added oleic acid

| SMILES | cell number change [%] | AC50 [1] | AC50 [2] |
| --- | --- | --- | --- |
| C/C(=N/n1cnnc1)c1cccnc1 | -22.6 | 4.61 µM [falling, partial curve] |  |
| CCOc1ccc(C(=O)OCCCN(C)C)cc1 | -61.5 | 0.00411 µM [falling, full curve, poor fit] | 9.2 µM [falling, partial curve] |
| CCOc1ccc(C(=O)Nc2ncn[nH]2)cc1 | 0.275 | 29.1 µM [falling, single point] |  |
| O/N=C/c1cc2ccccc2n1Cc1ccccc1F | -14.2 | 0.731 µM [falling, partial curve] |  |
| Cc1ccc(NC(=O)[C@@H]2CCCN2S(=O)(=O)c2ccccc2F)cc1S(=O)(=O)N1CCOCC1 | 1.71 | 3.66 µM [rising, single point] |  |
| C=CCn1c(SCC(=O)Nc2cccc(C)c2)nnc1-c1cnccn1 | 1.33 | 1.84 µM [rising, full curve, poor fit] |  |
| Cc1ccc(COC(=O)c2ccc3c(c2)C(=O)N(CCCN2CCOCC2)C3=O)cc1 | -30 | 29.1 µM [falling, single point] |  |
| CN(C)CCCN1C(=O)c2cc3ccccc3cc2C1=O | -6.32 | 4.11 µM [rising, single point] |  |
| S=c1[nH]nc(CSc2nc3ccccc3s2)n1C1CCCCC1 | -25.2 | 0.0651 µM [rising, full curve, poor fit] |  |
| c1ccc(CCN2CN=C(Nc3nc4ccccc4s3)NC2)cc1 | 48.2 |  | 29.1 µM [rising, single point] |
| CCCc1nc(SCC(=O)Nc2nccs2)c2ccccc2n1 | -15.9 |  |  |
| COc1cccc(NC(=O)c2ccc(Cn3cc([N+](=O)[O-])cn3)o2)c1 | -49.5 |  | 29.1 µM [falling, single point] |
| COc1cccc(-c2nn(-c3ccc(C)cc3)cc2C(=O)NCC2CCCO2)c1 (configuration not stated) | 27.3 |  |  |
| COc1ccccc1NC(=O)Cn1c(=O)n2nc(C)nc2c2ccccc21 | 9.11 | 0.164 µM [rising, full curve, poor fit] |  |
| Cc1cccc(NC(=O)c2cc(-c3c(C)cc(C)cc3O)n[nH]2)c1 | 6.34 |  | 0.00461 µM [rising, full curve, poor fit] |
| COc1ccccc1NC(=O)Cn1nnc(C(=O)NCCc2ccccc2)c1N | 15.4 | 1.16 µM [rising, partial curve, poor fit] | 0.206 µM [rising, partial curve] |
| Cc1cc(C)n(CCCNC(=O)CN(C)S(=O)(=O)c2ccc(Cl)cc2)n1 | -25 |  | 4.61 µM [rising, single point] |
| CCOC(=O)Cn1c(-c2ccccc2)cc(SC)c(C#N)c1=O | -8.97 | 2.06 µM [falling, full curve] |  |
| C=CCSC(=C(C#N)C#N)c1cc2c([nH]1)CCCC2 | -51.7 | 4.11 µM [rising, partial curve] | 29.1 µM [falling, single point] |
| COc1cccc(NC(=O)Nc2cccc(C(=O)O)c2)c1 | -15.4 | 0.517 µM [falling, full curve, poor fit] |  |

Molecules above with fluorine (2):

| SMILES | cell number change [%] | AC50 [1] | AC50 [2] |
| --- | --- | --- | --- |
| O/N=C/c1cc2ccccc2n1Cc1ccccc1F | -14.2 | 0.731 µM [falling, partial curve] |  |
| Cc1ccc(NC(=O)[C@@H]2CCCN2S(=O)(=O)c2ccccc2F)cc1S(=O)(=O)N1CCOCC1 | 1.71 | 3.66 µM [rising, single point] |  |

(more compounds)

| SMILES | cell number change [%] | AC50 [1] | AC50 [2] |
| --- | --- | --- | --- |
| O=C(OC1CCCCC1=O)c1cccc(S(=O)(=O)N2CCCCC2)c1 (configuration not stated) | -13.1 | 8.2 µM [falling, partial curve] | 0.146 µM [falling, full curve] |
| c1ccc(-c2ccccc2OCCOCCN2CCCCC2)cc1 | -14.5 | 16.4 µM [rising, single point] |  |
| O=C(CN1CCN(c2cccc(Cl)c2)CC1)Nc1ccc(S(=O)(=O)N2CCOCC2)cc1 | -7.82 | 2.91 µM [falling, partial curve] |  |
| O=C(CNC(=O)c1ccc(F)cc1)N/N=C/c1cn[nH]c1-c1ccccc1 | -26.9 | 4.11 µM [rising, partial curve, poor fit] | 0.116 µM [rising, full curve, poor fit] |
| COc1ccc(NC(=O)CCl)cn1 | -23 |  |  |
| COc1ccc(NC(=O)CN2CCN(C(=O)N3CCOCC3)CC2)cc1 | 14.7 |  |  |
| Cc1nn(C)cc1C1C2=C(CC(C)(C)CC2=O)N(c2ccccc2)C2=C1C(=O)CC(C)(C)C2 | -1.21 |  |  |
| Cc1c(C(=O)N2CCOCC2)c(S(=O)(=O)Nc2ccc(C(C)C)cc2)c(C)n1C | 17.1 |  |  |
| COc1ccc(N(C(C)C(=O)N/N=C/c2ccc(OCC(C)C)cc2)S(C)(=O)=O)cc1 (configuration not stated) | 9.29 | 16.4 µM [falling, single point] |  |
| Fc1ccc(-c2csc(Nc3ccccn3)n2)c(F)c1 | -30.1 | 6.51 µM [rising, single point] | 20.6 µM [falling, single point] |
| Cc1cccc(S(=O)(=O)c2c(N)n(/N=C/c3ccco3)c3nc4ccccc4nc23)c1 | -26.5 | 5.17 µM [falling, partial curve, poor fit] |  |
| CC(C)(C)N(Cc1ccccc1)C(=O)COC(=O)Cn1cnc2ccccc2c1=O |  | 18.4 µM [rising, single point] | 0.517 µM [rising, single point] |
| COCCCNC(=O)C1c2ccccc2Oc2ccccc21 | 17.3 |  |  |
| CC1CCC(NC(=O)CN(C)S(=O)(=O)c2ccc3c(c2)c(=O)n(C)c(=O)n3C)CC1 (configuration not stated) | -23 | 5.8 µM [falling, full curve] |  |
| Cc1ccc2c(c1)nnn2C1CCN(C(=O)NCc2ccccc2)CC1 | -34.5 |  |  |
| CCCCCCc1cc2cc(S(=O)(=O)c3ccc(F)c(Cl)c3)c(=O)oc2cc1O | -42 | 2.06 µM [falling, partial curve] | 7.31 µM [falling, partial curve, poor fit] |
| CC(C)(C)c1[nH]c2ccccc2c1/C=N/O | -75.8 |  | 29.1 µM [falling, single point] |
| NC(=O)C1CCCN(C(=O)c2ccc(S(=O)(=O)N3CCCCCC3)cc2)C1 (configuration not stated) | -9.2 | 0.082 µM [falling, full curve, poor fit] |  |
| COCCSc1ccccc1C(=O)Nc1nncs1 |  | 6.51 µM [rising, single point] | 6.51 µM [rising, single point] |
